# Cleaved PARP after 72 h of treatment

Values as published with doi:10.1371/journal.pone.0140310, rounded.

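Human melanoma cells were exposed to a pair of drugs for 72 h in 1,536-well plates and read by automated microscopy after fixing and staining. The read-out is the fraction of cleaved-PARP-positive nuclei, in % of that fraction in the DMSO control; 200 means twice the control level of this apoptosis marker. Concentrations were fixed for each drug; these are the higher of two levels. No replicate spread is given; individual values may be noisy. The marker varies much from line to line, for technical or biological reasons.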
An unselected part of the screen is shown.
An entry leaves out what has no value listed here.

Drugs:
PLX4720, 0.4 µM: CCCS(=O)(=O)Nc1ccc(F)c(C(=O)c2c[nH]c3ncc(Cl)cc23)c1F
decitabine, 0.5 µM: Nc1ncn([C@H]2C[C@H](O)[C@@H](CO)O2)c(=O)n1
dovitinib, 0.5 µM: CN1CCN(c2ccc3nc(-c4c(N)c5c(F)cccc5[nH]c4=O)[nH]c3c2)CC1
GW0742, 10 µM: Cc1cc(SCc2sc(-c3ccc(C(F)(F)F)c(F)c3)nc2C)ccc1OCC(=O)O
temozolomide, 10 µM: Cn1nnc2c(C(N)=O)ncn2c1=O
etoposide, 0.1 µM: COc1cc([C@@H]2c3cc4c(cc3[C@@H](O[C@@H]3O[C@@H]5CO[C@@H](C)O[C@H]5[C@H](O)[C@H]3O)[C@H]3COC(=O)[C@H]23)OCO4)cc(OC)c1O
tozasertib, 0.03 µM: Cc1cc(Nc2cc(N3CCN(C)CC3)nc(Sc3ccc(NC(=O)C4CC4)cc3)n2)n[nH]1
crizotinib, 1 µM: C[C@@H](Oc1cc(-c2cnn(C3CCNCC3)c2)cnc1N)c1c(Cl)ccc(F)c1Cl
KU-0063794, 0.1 µM: COc1ccc(-c2ccc3c(N4CCOCC4)nc(N4C[C@@H](C)O[C@@H](C)C4)nc3n2)cc1CO

Results for tozasertib + crizotinib are IST-MEL1: 148; LOX IMVI: 98.6; LB2518-MEL: 101; RVH-421: 148; SK-MEL-30: 125; RPMI-7951: 129.
Results for KU-0063794 + temozolomide are IST-MEL1: 32.0; LOX IMVI: 82.7; LB2518-MEL: 246; RVH-421: 95.1; SK-MEL-30: 157; RPMI-7951: 69.8.
Results for GW0742 + KU-0063794 are IST-MEL1: 65.4; LOX IMVI: 117; LB2518-MEL: 40.0; RVH-421: 50.8; SK-MEL-30: 165; RPMI-7951: 63.9.
Results for GW0742 + decitabine are IST-MEL1: 94.4; LOX IMVI: 59.2; LB2518-MEL: 40.1; RVH-421: 170; SK-MEL-30: 81.8; RPMI-7951: 81.4.
Results for etoposide + crizotinib are IST-MEL1: 294; LOX IMVI: 99.9; LB2518-MEL: 294; RVH-421: 130; SK-MEL-30: 127; RPMI-7951: 38.3.
Results for crizotinib + temozolomide are IST-MEL1: 131; LOX IMVI: 195; LB2518-MEL: 174; RVH-421: 127; SK-MEL-30: 88.2; RPMI-7951: 34.1.
Results for crizotinib + GW0742 are IST-MEL1: 92.4; LOX IMVI: 102; LB2518-MEL: 44.8; RVH-421: 173; SK-MEL-30: 212; RPMI-7951: 42.6.
Results for PLX4720 + GW0742 are IST-MEL1: 130; LOX IMVI: 109; LB2518-MEL: 159; RVH-421: 110; SK-MEL-30: 113; RPMI-7951: 46.4.
Results for crizotinib + PLX4720 are IST-MEL1: 157; LOX IMVI: 118; LB2518-MEL: 71.9; RVH-421: 173; SK-MEL-30: 64.7; RPMI-7951: 233.
Results for PLX4720 + decitabine are IST-MEL1: 33.1; LOX IMVI: 51.5; LB2518-MEL: 38.0; RVH-421: 144; SK-MEL-30: 55.6; RPMI-7951: 187.
Results for dovitinib + PLX4720 are IST-MEL1: 86.6; LOX IMVI: 163; LB2518-MEL: 251; RVH-421: 106; SK-MEL-30: 105; RPMI-7951: 284.
Results for GW0742 + tozasertib are IST-MEL1: 383; LOX IMVI: 85.4; RVH-421: 77.3; SK-MEL-30: 109; RPMI-7951: 106.
Results for temozolomide + dovitinib are IST-MEL1: 66.5; LOX IMVI: 82.4; LB2518-MEL: 120; RVH-421: 83.8; SK-MEL-30: 65.3; RPMI-7951: 156.
Results for temozolomide + decitabine are IST-MEL1: 40.0; LOX IMVI: 93.0; LB2518-MEL: 85.2; RVH-421: 273; SK-MEL-30: 157; RPMI-7951: 130.
Results for dovitinib + crizotinib are IST-MEL1: 69.1; LOX IMVI: 151; LB2518-MEL: 61.5; RVH-421: 61.9; SK-MEL-30: 86.7; RPMI-7951: 129.
Results for temozolomide + GW0742 are IST-MEL1: 69.3; LOX IMVI: 64.3; LB2518-MEL: 81.7; RVH-421: 52.5; SK-MEL-30: 188; RPMI-7951: 75.5.
Results for etoposide + tozasertib are IST-MEL1: 66.6; LOX IMVI: 122; LB2518-MEL: 185; RVH-421: 165; SK-MEL-30: 76.3; RPMI-7951: 131.
Results for dovitinib + KU-0063794 are IST-MEL1: 120; LOX IMVI: 176; LB2518-MEL: 486; RVH-421: 262; SK-MEL-30: 154; RPMI-7951: 47.1.
Results for decitabine + KU-0063794 are IST-MEL1: 97.4; LOX IMVI: 117; LB2518-MEL: 69.1; RVH-421: 417; SK-MEL-30: 161; RPMI-7951: 123.
Results for decitabine + crizotinib are IST-MEL1: 165; LOX IMVI: 188; LB2518-MEL: 42.7; RVH-421: 302; SK-MEL-30: 218; RPMI-7951: 38.2.
Results for GW0742 + dovitinib are IST-MEL1: 160; LOX IMVI: 144; RVH-421: 238; SK-MEL-30: 64.2; RPMI-7951: 268.
Results for decitabine + dovitinib are IST-MEL1: 173; LOX IMVI: 436; LB2518-MEL: 735; RVH-421: 111; SK-MEL-30: 225; RPMI-7951: 98.2.
Results for KU-0063794 + PLX4720 are IST-MEL1: 102; LOX IMVI: 183; LB2518-MEL: 125; RVH-421: 89.9; SK-MEL-30: 74.9; RPMI-7951: 199.
Results for tozasertib + decitabine are IST-MEL1: 35.3; LOX IMVI: 123; LB2518-MEL: 188; RVH-421: 84.5; SK-MEL-30: 143; RPMI-7951: 256.
Results for etoposide + decitabine are IST-MEL1: 212; LOX IMVI: 190; LB2518-MEL: 138; RVH-421: 53.8; SK-MEL-30: 23.0.
Results for KU-0063794 + tozasertib are IST-MEL1: 163; LOX IMVI: 27.3; LB2518-MEL: 46.3; RVH-421: 239; SK-MEL-30: 88.1; RPMI-7951: 189.
Results for etoposide + KU-0063794 are IST-MEL1: 90.3; LOX IMVI: 163; LB2518-MEL: 60.7; RVH-421: 119; SK-MEL-30: 146; RPMI-7951: 118.
Results for etoposide + temozolomide are IST-MEL1: 93.3; LOX IMVI: 134; RVH-421: 137; SK-MEL-30: 177; RPMI-7951: 33.7.
Results for etoposide + dovitinib are IST-MEL1: 158; LOX IMVI: 115; LB2518-MEL: 133; RVH-421: 181; SK-MEL-30: 66.7; RPMI-7951: 236.
Results for tozasertib + dovitinib are IST-MEL1: 236; LOX IMVI: 82.8; LB2518-MEL: 110; RVH-421: 137; SK-MEL-30: 49.3; RPMI-7951: 74.3.
Results for temozolomide + PLX4720 are IST-MEL1: 175; LOX IMVI: 54.7; LB2518-MEL: 69.2; RVH-421: 170; SK-MEL-30: 405; RPMI-7951: 40.5.
Results for tozasertib + PLX4720 are IST-MEL1: 47.4; LOX IMVI: 266; LB2518-MEL: 97.8; RVH-421: 412; SK-MEL-30: 169; RPMI-7951: 127.

Once more, the final 4:

* etoposide + dovitinib : IST-MEL1: 158; LOX IMVI: 115; LB2518-MEL: 133; RVH-421: 181; SK-MEL-30: 66.7; RPMI-7951: 236
* tozasertib + dovitinib : IST-MEL1: 236; LOX IMVI: 82.8; LB2518-MEL: 110; RVH-421: 137; SK-MEL-30: 49.3; RPMI-7951: 74.3
* temozolomide + PLX4720 : IST-MEL1: 175; LOX IMVI: 54.7; LB2518-MEL: 69.2; RVH-421: 170; SK-MEL-30: 405; RPMI-7951: 40.5
* tozasertib + PLX4720 : IST-MEL1: 47.4; LOX IMVI: 266; LB2518-MEL: 97.8; RVH-421: 412; SK-MEL-30: 169; RPMI-7951: 127